# Assay results: the supplement of paper PMC8256030
# “And” between values parts separate entries of the source, which are not always exact repeats. Equal values may be shown once. The list shows a part of the results. Single values are uncertain here, since repeats match poorly.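 HEK293T cells were given each compound shortly before transfection with a reporter in which red mCherry is followed by the SARS-CoV-2 frameshift element and then GFP in the −1 frame, so GFP appears only after frameshifting.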
# Columns and labels:
# [1] = test system: SARS-CoV-2 -1 PRF reporter mCherry-FSE-GFP(-1); test: mCherry (red) intensity as percent of control; higher = higher upstream reporter expression; conditions: 10 µM; 24 h; HEK293T
# [2] = test system: SARS-CoV-2 -1 PRF reporter mCherry-FSE-GFP(-1); test: percent effect, decrease of GFP/mCherry ratio (-1 PRF reporter) relative to controls; higher = stronger frameshift inhibition; conditions: 10 µM; 24 h; HEK293T
SMILES,mCherry [1],percent effect [2]
COc1ccc(OC(=O)N(CC(=O)O)Cc2ccc(OCCc3nc(-c4ccccc4)oc3C)cc2)cc1 [muraglitazar],102%,-4.91%
C=C1CC[C@H](O)C/C1=C/C=C1\CCC[C@]2(C)[C@@H]([C@H](C)/C=C/[C@H](C)C(C)C)CC[C@@H]12,103%,-7.58%
CN1C(C(=O)Nc2ccccn2)=C(O)c2sc(Cl)cc2S1(=O)=O,112%,-1.94%
CCCCC(=O)O[C@H]1CC[C@H]2[C@@H]3CCc4cc(O)ccc4[C@H]3CC[C@]12C [estradiol valerate],141%,-2.41%
CC1(C)S[C@@H]2[C@H](NC(=O)[C@H](NC(=O)N3CCNC3=O)c3ccccc3)C(=O)N2[C@H]1C(=O)O [Azlin],107% and 100%,-4.37% and -2%
OC[C@@H](O)[C@@H](O[C@@H]1O[C@H](CO)[C@H](O)[C@H](O)[C@H]1O)[C@H](O)[C@@H](O)CO [lactitol],63.6%,-8.12%
C=C1CC[C@H](O)C/C1=C/C=C1\CCC[C@]2(C)[C@@H]([C@H](C)CC[C@@H](O)C(C)(C)O)CC[C@@H]12 [secalciferol],103%,-1.38%
CC(=O)N[C@H]1[C@H]([C@H](O)[C@H](O)CO)OC(C(=O)O)=C[C@@H]1NC(=N)N [zanamivir],84.1%,-2.35%
CCN(CC)CCOC(=O)C(c1ccccc1)c1ccccc1 [adiphenine],90.6%,0.402%
CC(=O)S[C@@H]1CC2=CC(=O)CC[C@]2(C)[C@H]2CC[C@@]3(C)[C@@H](CC[C@@]34CCC(=O)O4)[C@H]12 [spironolactone],97% and 101%,-1.12% and -8.88%

# Reformatted: results already given.
SMILES | mCherry [1] | percent effect [2]
OC[C@@H](O)[C@@H](O[C@@H]1O[C@H](CO)[C@H](O)[C@H](O)[C@H]1O)[C@H](O)[C@@H](O)CO [lactitol] | 63.6% | -8.12%
C=C1CC[C@H](O)C/C1=C/C=C1\CCC[C@]2(C)[C@@H]([C@H](C)CC[C@@H](O)C(C)(C)O)CC[C@@H]12 [secalciferol] | 103% | -1.38%
